The text below walks through data of publication PMC11371642.

Sequences of proteins named here, by UniProt entry; tags and fusion partners are left off.
UniProt P49841: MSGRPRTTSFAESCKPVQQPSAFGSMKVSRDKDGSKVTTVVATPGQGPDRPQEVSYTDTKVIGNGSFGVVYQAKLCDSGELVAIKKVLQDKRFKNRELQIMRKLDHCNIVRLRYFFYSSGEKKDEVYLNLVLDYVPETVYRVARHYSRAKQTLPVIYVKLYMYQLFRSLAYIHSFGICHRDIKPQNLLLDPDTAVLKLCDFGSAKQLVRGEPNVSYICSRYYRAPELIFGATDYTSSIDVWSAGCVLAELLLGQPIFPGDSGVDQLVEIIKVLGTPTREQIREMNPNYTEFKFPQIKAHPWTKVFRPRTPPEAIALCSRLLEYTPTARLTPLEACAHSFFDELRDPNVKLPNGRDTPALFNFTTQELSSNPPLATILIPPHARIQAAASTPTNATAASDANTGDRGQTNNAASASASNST
UniProt Q9UBN7: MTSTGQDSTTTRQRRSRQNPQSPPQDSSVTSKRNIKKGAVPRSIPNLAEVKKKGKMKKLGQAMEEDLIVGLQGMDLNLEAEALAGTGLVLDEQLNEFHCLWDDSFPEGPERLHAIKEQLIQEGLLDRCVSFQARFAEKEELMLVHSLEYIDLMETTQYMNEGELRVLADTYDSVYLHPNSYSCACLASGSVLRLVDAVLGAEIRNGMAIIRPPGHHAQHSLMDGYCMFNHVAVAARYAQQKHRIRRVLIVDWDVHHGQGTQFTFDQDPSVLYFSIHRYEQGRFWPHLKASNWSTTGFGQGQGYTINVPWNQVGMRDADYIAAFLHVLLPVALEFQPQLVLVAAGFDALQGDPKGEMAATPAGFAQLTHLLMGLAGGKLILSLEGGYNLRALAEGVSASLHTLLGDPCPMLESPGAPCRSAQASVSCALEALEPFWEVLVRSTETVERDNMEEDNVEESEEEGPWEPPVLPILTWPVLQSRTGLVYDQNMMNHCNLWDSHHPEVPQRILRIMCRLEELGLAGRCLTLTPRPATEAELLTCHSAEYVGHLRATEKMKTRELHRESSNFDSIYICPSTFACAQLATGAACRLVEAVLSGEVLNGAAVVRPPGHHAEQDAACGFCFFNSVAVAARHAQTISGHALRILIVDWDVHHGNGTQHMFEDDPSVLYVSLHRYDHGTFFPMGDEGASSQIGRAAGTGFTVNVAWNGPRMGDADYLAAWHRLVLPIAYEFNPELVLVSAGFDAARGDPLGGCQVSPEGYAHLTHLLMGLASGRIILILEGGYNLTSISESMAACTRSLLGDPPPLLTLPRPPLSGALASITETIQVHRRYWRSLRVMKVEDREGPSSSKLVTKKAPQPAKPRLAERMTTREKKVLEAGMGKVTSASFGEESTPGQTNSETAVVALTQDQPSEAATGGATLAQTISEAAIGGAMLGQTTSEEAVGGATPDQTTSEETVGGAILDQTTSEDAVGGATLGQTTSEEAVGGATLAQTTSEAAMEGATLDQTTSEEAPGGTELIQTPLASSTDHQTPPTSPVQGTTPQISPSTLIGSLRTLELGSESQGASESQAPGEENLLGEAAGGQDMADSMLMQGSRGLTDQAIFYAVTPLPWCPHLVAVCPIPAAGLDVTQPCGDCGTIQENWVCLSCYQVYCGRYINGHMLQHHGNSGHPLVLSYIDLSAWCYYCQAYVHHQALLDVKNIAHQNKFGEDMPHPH

No constants are given. Whether binding was seen depends on the method and setting. Binding seen in cells or lysates may run through a third protein. Some binding calls cover weakened binding; strength is not graded here.

The assay deals with Glycogen synthase kinase-3β (human (endogenous in ES/hiPSC-derived SPNs)) (UniProt P49841). As to the kind of experiment: co-IP; lysate of vehicle- and ketamine-treated SPNs in ice-cold immunoprecipitation buffer; rabbit anti-GSK-3β antibody overnight at 4 °C, Protein A/G agarose 4 h at 4 °C; rabbit IgG as negative control; detection by Western blotting. Background: Immunoblotting shows a protein as a band on a membrane.

In the case of “Histone deacetylase 6 (from UniProt Q9UBN7 1-1215) (enzyme)”, the binding result was “binds”.
